In patent US12486302B2 (CDRD VENTURES INC., priority 2016, dated 2025):

assay: general procedure: Fmoc solid-phase peptide synthesis; Rink Amide MBHA resin; HBTU/NMM; DIC/OxymaPure for cysteines; conditions: oxidative folding step, HPLC, TFA salt

With “H-Cpa-cyclo[D-Cys-Tyr-D-Phe(4-n-pentylamino)-Lys-Thr-Cys]-D-Tyr-NH2” the “final HPLC purity” value was 95.1%.

same assay, conditions: whole synthesis, overall, scale of the general procedure 0.1 mmol, bis acetate salt

Point of comparison: “H-Cpa-cyclo[D-Cys-Tyr-D-Phe(4-phenylureido)-Lys-Thr-Cys]-D-Tyr-NH2”, isolated yield 30%. Against it:
- H-Cpa-cyclo[D-Cys-Tyr-D-Cit-Lys-Thr-Cys]-D-Tyr-NH2 — higher, 32%
- H-Cpa-cyclo[D-Cys-Tyr-D-Phe(4-carbamoyl)-Lys(N^ε-Me)-Thr-Cys]-D-Tyr-NH2 — higher, 40%
- H-Cpa-cyclo[D-Cys-Tyr-D-Phe(4-carbamoyl)-Lys-Thr-Cys]-D-Tyr-NH2 — higher, 33%

same assay, conditions: whole synthesis, scale 0.1 mmol, TFA salt; some converted to bis acetate salt (General Method H)

“H-Cpa-D-Cys-Tyr-D-Phe(4-n-pentylamino)-Lys-Thr-Cys-D-Tyr-NH2” showed a crude mass of 50 mg.

same assay, conditions: whole synthesis, scale of the general procedure 0.1 mmol, 2-TFA salt

Point of comparison: “H-Cpa-cyclo[D-Cys-Tyr-D-Phe(4-phenylureido)-Lys(N^ε-Me)-Thr-Cys]-D-Tyr-NH2”, isolated yield 10%. Against it:
- H-Cpa-cyclo[D-Cys-Cpa-D-Phe(4-carbamoyl)-Lys(N^ε-Me)-Thr-Cys]-D-Cpa-NH2 — higher, 23%
- H-Cpa-cyclo[D-Cys-Cpa-D-Phe(4-carbamoyl)-Lys(N^ε-Me)-Thr-Cys]-D-Tyr-NH2 — higher, 33%
- H-Cpa-cyclo[D-Cys-Tyr-D-Phe(4-carbamoyl)-Lys(N^ε-Me)-Thr-Cys]-D-Cpa-NH2 — higher, 29%
- H-Cpa-cyclo[D-Cys-Tyr-D-Phe(4-carbamoyl)-Lys(N^ε-diMe)-Thr-Cys]-D-Tyr-NH2 — lower, 9%
- H-β-Ala-Cpa-cyclo[D-Cys-Tyr-D-Phe(4-carbamoyl)-Lys (Nε-Me)-Thr-Cys]-D-Tyr-NH2 — lower, 6%
- H—(N-Me)Cpa-cyclo[D-Cys-Tyr-D-Phe(4-carbamoyl)-Lys-Thr-Cys]-D-Tyr-NH2 — the same, 10%

same assay, conditions: whole synthesis, scale of the general procedure 0.1 mmol, TFA salt

Point of comparison: “Ac-Gly-Cpa-cyclo[D-Cys-Tyr-D-Phe(4-carbamoyl)-Lys(N^ε-Me)-Thr-Cys]-D-Tyr-NH2”, isolated yield 4%. Against it:
- 2-Pyridyl(CO)-Cpa-cyclo[D-Cys-Tyr-D-Phe(4-carbamoyl)-Lys(N^ε-Me)-Thr-Cys]-D-Tyr-NH2 — higher, 8%
- (Furan-2-carboxy)-Cpa-cyclo[D-Cys-Tyr-D-Phe(4-carbamoyl)-Lys(N^ε-Me)-Thr-Cys]-D-Tyr-NH2 — higher, 8%
- CH3(CH2)4(CO)-Cpa-cyclo[D-Cys-Tyr-D-Phe(4-carbamoyl)-Lys(N^ε-Me)-Thr-Cys]-D-Tyr-NH2 — higher, 8%
- CH3O2C(CH2)2(CO)-Cpa-cyclo[D-Cys-Tyr-D-Phe(4-carbamoyl)-Lys(N^ε-Me)-Thr-Cys]-D-Tyr-NH2 — higher, 9%
- H2N(CO)(CH2)2(CO)-Cpa-cyclo[D-Cys-Tyr-D-Phe(4-carbamoyl)-Lys(N^ε-Me)-Thr-Cys]-D-Tyr-NH2 — higher, 5%
- Ph(CO)NHCH2(CO)-Cpa-cyclo[D-Cys-Tyr-D-Phe(4-carbamoyl)-Lys(N^ε-Me)-Thr-Cys]-D-Tyr-NH2 — lower, 3%
- PhSO2CH2(CO)-Cpa-cyclo[D-Cys-Tyr-D-Phe(4-carbamoyl)-Lys(N^ε-Me)-Thr-Cys]-D-Tyr-NH2 — the same, 4%
- t-BuCH2(CO)-Cpa-cyclo[D-Cys-Tyr-D-Phe(4-carbamoyl)-Lys(N^ε-Me)-Thr-Cys]-D-Tyr-NH2 — higher, 10%
